# Source: the supplement of paper PMC12889115
# The list shows a part of the results. Values are raw readings; no control value is given beside them.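 First-pass screen: polymyxin B was added at a level that permeabilizes the Salmonella outer membrane while sparing the inner membrane. DMSO wells, with and without polymyxin B, defined maximum growth. Because plates differed from one another, each plate's data were ranked separately and the compounds with the lowest OD600 were carried forward as hits.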
# Test system: Salmonella enterica serovar Typhimurium SL1344
# Assay: bacterial growth OD600 after 18 h with compound and polymyxin B; higher = more bacterial growth (less inhibition)
# Conditions: 50 µM, Mueller-Hinton broth
Compound,bacterial growth OD600 (polymyxin B 0.75 µg/mL),bacterial growth OD600 (polymyxin B 1 µg/mL)
COc1ccccc1CN1C[C@@H]2C[C@@H](c3cc(F)ccc3F)N3CCC[C@@]23C1=O,0.006,
CCN1CCCC1CNC(=O)CCC1CCN(Cc2cc(CC(C)C)[nH]n2)CC1 (stereo unspecified),0.772,
Cc1cnc(C(=O)N2CC[C@@H](N3CCN(c4ccccc4F)CC3)[C@H](O)C2)cn1,,0.898
CN(Cc1cccnc1)CC1CCN(CCc2ccc(Cl)cc2)CC1,,0.768
COc1cc(C(=O)NCc2ccccc2C)ccc1OC1CCN(C(C)=O)CC1,,1.06
Cc1ccc(C)c(CN2CCC(N3CCCC(C(=O)NC4CC4)C3)CC2)c1 (stereo unspecified),0.831,
Cc1c(CN2CCc3[nH]nc(-c4cccc(F)c4)c3C2)cnn1C,0.836,
O=C(C1CCCCC1)N1CCC(C2(c3ccccn3)NC(=O)N(CCc3cccs3)C2=O)CC1 (stereo unspecified),0.836,
COC(=O)CNC(=O)CCc1nnc(Cc2cccc(C(F)(F)F)c2)o1,,0.978
COC(=O)c1cccc(C(=O)N2CCCC(N3CCN(c4ccccc4OC)CC3)C2)c1 (stereo unspecified),,0.837
COc1ccccc1C1CCCN1C(=O)CCC1(Cc2ccc(C)cc2)CCC(=O)N1 (stereo unspecified),0.964,
CO[C@H]1[C@H](NC(=O)CSC)c2ccccc2C12CCN(Cc1cnc(N(C)C)s1)CC2,0.82,
CCOc1ccccc1CN1CCCC(CNC(=O)Cc2ccc(OC)cc2)C1 (stereo unspecified),,1.02
COC(c1ccc2c(c1)CN(C(=O)c1ocnc1C)CCO2)C1CCCCC1 (stereo unspecified),0.741,
Cn1c(C2CCCO2)nc2cc(NC(=O)CC3CCCC3)cc(C(=O)N3CCCCCC3)c21 (stereo unspecified),0.87,
CCOC(=O)N1CCN(C(=O)c2cc(NC(=O)Cc3ccccc3)cc3nc(COC)n(C)c23)CC1,0.929,

Compound,bacterial growth OD600 (polymyxin B 0.75 µg/mL),bacterial growth OD600 (polymyxin B 1 µg/mL)
O=C(CCn1cnc2ccccc2c1=O)N1CCCC(Nc2ccccc2)C1 (stereo unspecified),,1.18
COc1ccccc1CN(C)C(=O)c1cc(Cn2nc(C)cc2C)[nH]n1,0.852,
Cc1ncc2c(c1CNC(=O)/C=C/c1cccs1)CCN(C(=O)COc1ccccc1)C2,0.869,
O=C(c1cc(COc2ccc(F)cc2Cl)on1)N1CCN(C2CCCCC2)C(=O)C1,,0.579
COC(=O)CCC(=O)N1CCc2onc(-c3ccccc3F)c2C1,0.976,
O=C1NCCN(Cc2ccccc2)C1CC(=O)N1CCN(c2ccccc2)CC1 (stereo unspecified),,0.85
CN1CCN([C@@H]2CCN(Cc3ccc(Oc4ncccn4)cc3)C[C@H]2O)CC1,0.82,
CCOCCCNC(=O)C1CCC(=O)N(CCc2ccc(OC)cc2)C1 (stereo unspecified),,0.848
CCOC(=O)C1(CCCc2ccccc2)CCN(C(=O)CCSC)CC1,,0.102
CCc1nc(C)c(C(=O)NCc2cccnc2N(CC)CC)o1,,0.942
COc1ccc(/C=C/C(=O)N2CCCC(CNC(=O)c3ccco3)C2)cc1 (stereo unspecified),,0.887
COCCN(C)Cc1cnc(S(=O)(=O)Cc2ccccc2)n1CC(C)C,,1.09
OCCN(Cc1nc(-c2ccc3c(c2)OCO3)no1)Cc1cccs1,,0.993
CN(CCc1ccccn1)c1ncccc1CNC(=O)c1ccoc1,,1.03
CCOC(=O)C1(CCCc2ccccc2)CCN(C(=O)c2ccoc2C)CC1,,0.036

# Three structures already listed, arranged by SMILES length, smallest number first.
Compound,bacterial growth OD600 (polymyxin B 0.75 µg/mL),bacterial growth OD600 (polymyxin B 1 µg/mL)
CCOCCCNC(=O)C1CCC(=O)N(CCc2ccc(OC)cc2)C1 (stereo unspecified),,0.848
COC(=O)CNC(=O)CCc1nnc(Cc2cccc(C(F)(F)F)c2)o1,,0.978
COc1ccc(/C=C/C(=O)N2CCCC(CNC(=O)c3ccco3)C2)cc1 (stereo unspecified),,0.887
